The supplement of paper PMC7646827
Counter-ions that a name gives are not always drawn. Single values are uncertain, as repeats are few or missing.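 All cells are established human bladder cancer lines, one derived from a patient-derived xenograft. A luminescent ATP assay measured viability as percent inhibition relative to vehicle across seven dilutions. The paper rates scores above 59 very active, 30–59 active, 21–29 semi-active, 9–20 low active, below 9 inactive.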

Experiments:
Experiment in all cases: drug sensitivity score DSS3 (score 0-100); higher = more sensitive; extreme values may be limits of the assay
Details in all cases: culture: 3D, ultra-low attachment; treatment time: 5 days
[1] = system: SW780
[2] = system: UM-UC-17
[3] = system: T-24
[4] = system: BC8149
[5] = system: UM-UC-18
[6] = system: UM-UC-5
[7] = system: UM-UC-9
[8] = system: UM-UC-1
[9] = system: J82
[10] = system: SCaBER
[11] = system: UM-UC-6
[12] = system: UM-UC-14
[13] = system: TCCSUP
[14] = system: UM-UC-15
[15] = system: 5637
[16] = system: UM-UC-12

Row | SMILES | drug sensitivity score DSS3 [1] | drug sensitivity score DSS3 [2] | drug sensitivity score DSS3 [3] | drug sensitivity score DSS3 [4] | drug sensitivity score DSS3 [5] | drug sensitivity score DSS3 [6] | drug sensitivity score DSS3 [7] | drug sensitivity score DSS3 [8] | drug sensitivity score DSS3 [9] | drug sensitivity score DSS3 [10] | drug sensitivity score DSS3 [11] | drug sensitivity score DSS3 [12] | drug sensitivity score DSS3 [13] | drug sensitivity score DSS3 [14] | drug sensitivity score DSS3 [15] | drug sensitivity score DSS3 [16]
1 | CN(C)C/C=C/C(=O)Nc1cc2c(Nc3ccc(F)c(Cl)c3)ncnc2cc1O[C@H]1CCOC1 [Afatinib, Afatinib (BIBW2992)] (max dose 10000 nM) | 0 | 0 | 16.6 | 2.05 | 11.7 | 0 | 0 | 0 | 0.57 | 27 | 6.27 | 0.717 | 4.14 | 0 | 22.8 | 40.5
2 | CC1CNc2c(cccc2S(=O)(=O)N[C@@H](CCCNC(=N)N)C(=O)N2CC[C@@H](C)C[C@@H]2C(=O)O)C1 (stereo partly specified) [Argatroban Monohydrate] (max dose 10000 nM) | 0.251 | 0.673 | 0.0835 | 1.16 | 8.16 | 0 | 0 | 1.88 | 0.601 | 0.996 | 6.78 | 3.81 | 2.42 | 0 | 3.15 | 0
3 | COc1ccc(-c2cc3nccn3c(Nc3ncccc3C(N)=O)n2)cc1OC [BAY-61-3606] (max dose 10000 nM) | 0 | 0 | 0 | 0.0468 | 0 | 0.116 | 0 | 0.53 | 0 | 0 | 0 | 1.8 | 0.175 | 0 | 0 | 0
4 | COc1nc(OCc2cccc(-c3ccccc3)c2C)ccc1CNCCNC(C)=O [BMS202 (PD-1/PD-L1 inhibitor 2)] (max dose 10000 nM) | 0 | 0 | 0 | 0.824 | 0.191 | 0 | 0 | 0.712 | 0 | 0 | 0.249 | 0.929 | 2.34 | 1.87 | 0.254 | 0
5 | O=C(/C=C/c1cccc(S(=O)(=O)Nc2ccccc2)c1)NO [Belinostat (PXD101)] (max dose 10000 nM) | 0 | 4.19 | 2.03 | 5.55 | 8.66 | 1.63 | 1.2 | 0 | 6.89 | 1.63 | 1.15 | 1.29 | 8.75 | 4.01 | 4.79 | 4.35
6 | Cc1ccc2c(=O)c3cccc(CC(=O)O)c3oc2c1C [DMXAA (Vadimezan)] (max dose 10000 nM) | 0 | 0 | 0.0132 | 0.43 | 1.91 | 0.0585 | 0.0478 | 0.402 | 0 | 0.716 | 0.161 | 0.542 | 0.0964 | 9.61 | 0 | 0
7 | COc1cccc2c1C(=O)c1c(O)c3c(c(O)c1C2=O)C[C@@](O)(C(C)=O)C[C@@H]3O[C@H]1C[C@H](N)[C@H](O)[C@H](C)O1 [Daunorubicin HCl] (max dose 10000 nM) | 3.82 | 32.2 | 2.72 | 16.7 | 49.6 | 4.82 | 4.03 | 27.6 | 7.23 | 14.9 | 30.9 | 3.58 | 38.3 | 8.69 | 37.9 | 16.1
8 | Cn1c(=O)c2c(ncn2CC2OCCO2)n(C)c1=O [Doxofylline] (max dose 10000 nM) | 0.466 | 6.02 | 0 | 4.53 | 2.63 | 1.02 | 1.68 | 1.88 | 0 | 0.279 | 3.89 | 2.09 | 8.8 | 0 | 11.2 | 0
9 | CC(C)(C)c1cc(C(=O)C(C#N)=NNc2cccc(Cl)c2)no1 [ESI-09] (max dose 10000 nM) | 0.0374 | 0.641 | 0 | 0 | 0 | 0 | 0.0969 | 0.556 | 0 | 0 | 0.104 | 0 | 0.789 | 1.33 | 0 | 0.285
10 | CC[C@H](C)n1cc(C)c2c(C(=O)NCc3c(C)cc(C)[nH]c3=O)cc(-c3ccc(N4CCNCC4)nc3)cc21 [GSK126] (max dose 10000 nM) | 0 | 0 | 0 | 0 | 0 | 0 | 0 | 0.00643 | 0 | 0 | 0 | 0 | 0.809 | 0 | 0.224 | 0.436
11 | COc1ccccc1C(=O)Nc1cc2c(cc1N1CCCCC1)n(C)c(=O)n2C [GSK 5959] (max dose 10000 nM) | 0 | 0 | 0 | 0 | 0 | 0 | 0.107 | 0.0632 | 0 | 0 | 0 | 0.216 | 0 | 1.68 | 0 | 0

From compound 9 as far as 10, as listed above:
Row | SMILES | drug sensitivity score DSS3 [1] | drug sensitivity score DSS3 [2] | drug sensitivity score DSS3 [3] | drug sensitivity score DSS3 [4] | drug sensitivity score DSS3 [5] | drug sensitivity score DSS3 [6] | drug sensitivity score DSS3 [7] | drug sensitivity score DSS3 [8] | drug sensitivity score DSS3 [9] | drug sensitivity score DSS3 [10] | drug sensitivity score DSS3 [11] | drug sensitivity score DSS3 [12] | drug sensitivity score DSS3 [13] | drug sensitivity score DSS3 [14] | drug sensitivity score DSS3 [15] | drug sensitivity score DSS3 [16]
9 | CC(C)(C)c1cc(C(=O)C(C#N)=NNc2cccc(Cl)c2)no1 [ESI-09] (max dose 10000 nM) | 0.0374 | 0.641 | 0 | 0 | 0 | 0 | 0.0969 | 0.556 | 0 | 0 | 0.104 | 0 | 0.789 | 1.33 | 0 | 0.285
10 | CC[C@H](C)n1cc(C)c2c(C(=O)NCc3c(C)cc(C)[nH]c3=O)cc(-c3ccc(N4CCNCC4)nc3)cc21 [GSK126] (max dose 10000 nM) | 0 | 0 | 0 | 0 | 0 | 0 | 0 | 0.00643 | 0 | 0 | 0 | 0 | 0.809 | 0 | 0.224 | 0.436
